PubChem BioAssay AID1259260 – Sanger Institute – 2017
Purpose: 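Kinases whose knock-down kills colorectal cancer cells or boosts drug effects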 (primary screen). System: human NCI-H716 colorectal cancer cells. Knock-down reagent: siRNA pool against human genes. Treatment: anchor drugs BYL719 (alpelisib) 1 µM, cetuximab 5 µg/ml or trametinib 10 nM, each at a dose chosen to harm viability only mildly; DMSO vehicle for the knock-down-alone arm. Detection: 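Mean viability over replicates against non-targeting siRNA, robust z-score without drug, and per-drug synergy comparing combined with single treatments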. Direction: viability robust z-score, siRNA alone: higher = more surviving cells; below -3 called essential; viability vs control, no drug: higher = more surviving cells; synergy score with BYL719 and synergy score with cetuximab and synergy score with trametinib: higher = stronger synergy (synthetic lethality) with drug. Active means: 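Essential when the robust z-score for knock-down alone falls below -3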. Calls: active = essential (knock-down alone lowers viability); inactive = no essential effect.
Shown is one part, drawn at random, of 794 deposited reagents. Of all reagents, 13 (1.6%) got an active call. 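Calls reflect only knock-down without drug; synergy above 0.15 was grouped apart and does not change the call.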 Viability is capped at 1. No sequences are given here. Not stated in the record: the amount of reagent, the time to read-out.

| Gene | viability robust z-score, siRNA alone | viability vs control, no drug (fraction of control) | synergy score with BYL719 | synergy score with cetuximab | synergy score with trametinib | outcome |
| --- | --- | --- | --- | --- | --- | --- |
| PAK3 | 0.602 | 1 | 0.0201 | -0.1 | 0.155 | inactive |
| MATK | -1.56 | 0.775 | -0.239 | -0.214 | -0.0428 | inactive |
| CDKL3 | 0.602 | 1 | -0.283 | -0.1 | -0.0951 | inactive |
| KSR2 | 0.602 | 1 | -0.251 | -0.1 | -0.103 | inactive |
| EIF2AK4 | -2.28 | 0.7 | -0.2 | -0.0855 | -0.153 | inactive |
| STK38 | -0.518 | 0.884 | -0.18 | -0.0879 | -0.166 | inactive |
| RPS6KA4 | -0.759 | 0.859 | -0.151 | -0.177 | 0.121 | inactive |
| PRKACG | 0.602 | 1 | -0.115 | -0.0126 | 0.192 | inactive |
| WNK4 | 0.602 | 1 | -0.171 | -0.1 | 0.148 | inactive |
| MYLK2 | 0.412 | 0.98 | -0.0834 | 0.112 | 0.369 | inactive |
| STK26 | -0.123 | 0.925 | -0.0101 | -0.168 | 0.107 | inactive |
| WEE1 | 0.602 | 1 | -0.115 | -0.1 | 0.166 | inactive |
| MAPK15 | 0.452 | 0.984 | -0.263 | -0.114 | -0.0896 | inactive |
| SYNCRIP | 0.602 | 1 | -0.0571 | -0.1 | 0.421 | inactive |
| ASPM | -0.332 | 0.903 | -0.13 | -0.108 | -0.17 | inactive |
| PFKM | 0.602 | 1 | -0.283 | -0.1 | 0.0212 | inactive |
| ACVR2B | 0.602 | 1 | -0.11 | -0.0866 | 0.0449 | inactive |
| BMAL1 | 0.41 | 0.98 | -0.000173 | -0.118 | 0.227 | inactive |
| AK4 | -1.18 | 0.815 | -0.252 | -0.0837 | -0.0102 | inactive |
| CDC42BPB | 0.602 | 1 | -0.15 | -0.0361 | 0.144 | inactive |
| TESK1 | 0.602 | 1 | -0.261 | -0.1 | 0.0797 | inactive |
| DYRK1B | -1.08 | 0.826 | -0.133 | -0.024 | -0.0253 | inactive |
| GK2 | 0.602 | 1 | -0.154 | -0.1 | -0.0618 | inactive |
| EPHB1 | 0.602 | 1 | -0.132 | -0.1 | -0.061 | inactive |
| STK16 | 0.602 | 1 | -0.261 | -0.1 | -0.165 | inactive |
| AKT2 | 0.602 | 1 | -0.0805 | 0.0495 | 0.13 | inactive |
| PRKCH | 0.602 | 1 | -0.0488 | -0.1 | -0.141 | inactive |
| IRAK2 | 0.385 | 0.977 | -0.201 | 0.0431 | 0.131 | inactive |
| N4BP2 | 0.602 | 1 | -0.069 | -0.1 | 0.0275 | inactive |
| MPP3 | 0.52 | 0.991 | -0.146 | -0.108 | 0.379 | inactive |
| CAMKK1 | 0.454 | 0.985 | -0.158 | -0.0868 | -0.0647 | inactive |
| TAF1 | 0.602 | 1 | -0.0801 | -0.1 | 0.00712 | inactive |
| AK1 | -0.471 | 0.888 | -0.0989 | 0.0432 | 0.0167 | inactive |
| ADGRL2 | 0.602 | 1 | -0.184 | -0.1 | -0.282 | inactive |
| MELK | 0.423 | 0.981 | -0.022 | -0.117 | 0.212 | inactive |
| EFNB3 | 0.139 | 0.952 | -0.222 | -0.144 | 0.00272 | inactive |
| APC | 0.214 | 0.96 | -0.0836 | -0.068 | 0.222 | inactive |
| CIT | -2.67 | 0.66 | -0.0496 | -0.0139 | -0.0265 | inactive |
| GUK1 | -1.83 | 0.747 | -0.0342 | -0.0132 | 0.0627 | inactive |
| FLT4 | 0.602 | 1 | -0.283 | -0.1 | 0.0462 | inactive |
| DYRK4 | -0.569 | 0.878 | -0.0942 | -0.159 | -0.0169 | inactive |
| MARK2 | -0.882 | 0.846 | -0.151 | -0.0855 | 0.0312 | inactive |
| CAMK1 | 0.507 | 0.99 | -0.0304 | -0.0609 | -0.143 | inactive |
| CDK7 | 0.602 | 1 | -0.0969 | -0.1 | 0.0277 | inactive |
| MAP4K3 | 0.405 | 0.98 | -0.107 | -0.119 | 0.219 | inactive |
| MAP3K2 | 0.602 | 1 | -0.283 | -0.1 | 0.064 | inactive |
| DAPK2 | 0.602 | 1 | -0.117 | -0.1 | 0.129 | inactive |
| CDKL5 | -1.17 | 0.816 | -0.0547 | -0.266 | -0.0311 | inactive |
| EPHB2 | 0.602 | 1 | 0.134 | 0.377 | 0.344 | inactive |
| HK3 | 0.602 | 1 | -0.121 | -0.1 | 0.0595 | inactive |
| UHMK1 | 0.602 | 1 | 0.0171 | 0.0952 | 0.0865 | inactive |
| FER | 0.602 | 1 | -0.283 | -0.1 | -0.164 | inactive |
| RET | -1.64 | 0.767 | -0.219 | -0.205 | -0.0644 | inactive |
| PANK4 | -0.453 | 0.89 | -0.0408 | -0.13 | 0.0798 | inactive |
| MAST4 | 0.602 | 1 | -0.123 | -0.1 | -0.0261 | inactive |
| PPP2R1A | 0.602 | 1 | -0.283 | -0.1 | -0.0266 | inactive |
| DCLK3 | -0.237 | 0.913 | -0.189 | 0.187 | -0.0439 | inactive |
| PRKAB2 | -2.48 | 0.679 | -0.148 | -0.0616 | 0.115 | inactive |
| STK25 | -0.0837 | 0.929 | -0.296 | -0.164 | -0.00512 | inactive |
| PIK3R2 | -0.782 | 0.856 | -0.184 | -0.0315 | -0.171 | inactive |
| GSK3B | 0.602 | 1 | -0.212 | -0.1 | 0.00316 | inactive |
| PTK2B | -0.333 | 0.903 | -0.0787 | 0.0621 | 0.117 | inactive |
| BPTF | 0.602 | 1 | -0.283 | -0.1 | 0.0224 | inactive |

An excerpt from above, showing only “synergy score with cetuximab”.
MAP3K2	-0.1
DAPK2	-0.1
CDKL5	-0.266
EPHB2	0.377
